Measured values: publication PMC4960310
No constants are given. Whether binding was seen depends on the method and setting. A result given as binding can be weak or reduced; the word gives no strength.

Sequences of proteins named here, by UniProt entry; tags and fusion partners are left off. A change or cut given only in a name is not applied to a line headed by its entry.
UniProt O54864: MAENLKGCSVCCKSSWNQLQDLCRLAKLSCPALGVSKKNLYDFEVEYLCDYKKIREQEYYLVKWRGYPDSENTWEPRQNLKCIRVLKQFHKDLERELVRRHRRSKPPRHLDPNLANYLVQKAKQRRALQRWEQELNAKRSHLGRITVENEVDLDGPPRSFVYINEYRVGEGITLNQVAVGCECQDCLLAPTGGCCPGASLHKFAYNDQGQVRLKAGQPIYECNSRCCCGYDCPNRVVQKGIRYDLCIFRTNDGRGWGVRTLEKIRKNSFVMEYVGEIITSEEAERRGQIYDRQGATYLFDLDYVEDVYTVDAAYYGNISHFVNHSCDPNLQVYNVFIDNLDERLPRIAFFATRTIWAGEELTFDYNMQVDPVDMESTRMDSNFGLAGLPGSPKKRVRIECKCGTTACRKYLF
UniProt P63279: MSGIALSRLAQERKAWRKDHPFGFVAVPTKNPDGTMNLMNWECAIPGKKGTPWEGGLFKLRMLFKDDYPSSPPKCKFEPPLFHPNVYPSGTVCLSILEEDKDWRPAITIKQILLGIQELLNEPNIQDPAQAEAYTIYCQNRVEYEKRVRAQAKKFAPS

Molecular target: His-Suv39h1-1-167-EQEmut (mouse) (UniProt O54864)
Test: far-Western, overlay or dot blot; lysates of E. coli expressing His-Suv39h1 full-length and truncation fragments resolved by SDS-PAGE, transferred to nitrocellulose, denatured/renatured and incubated with purified recombinant GST fusion protein; bound protein detected with anti-GST; only the binder purified

GST-Ubc9 (from UniProt P63279 1-158) (enzyme)
binding: binds
